{"source": "PubChem BioAssay AID1159584, Peter MacCallum Cancer Centre | 2016", "aim": "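Knock-downs that harm CDH1-null cells more than parental MCF10A cells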 (primary screen)", "cell system": "human MCF10A breast epithelial cells, parental and CDH1-null", "reagent": "siRNA against human genes", "measured": "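ATP luminescence (CellTiter-Glo) viability per line relative to mean mock wells over all plates, and the ratio of CDH1-null to parental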", "scale": "CDH1-null / parental viability ratio: higher = CDH1-null cells survive relatively better than parental", "note": "This is one part, drawn at random, of about 18,000 deposited reagents. Reagents against one gene are numbered here. Further read-outs or replicates are left out here. The record does not give: the amount of reagent, the time to read-out."}
{"Gene": "ZFP36L2 (GeneID 678)", "reagent no.": 1, "CDH1-null / parental viability ratio": 1.2}
{"Gene": "LENG8 (GeneID 114823)", "reagent no.": 1, "CDH1-null / parental viability ratio": 0.74}
{"Gene": "WNT5A (GeneID 7474)", "reagent no.": 1, "CDH1-null / parental viability ratio": 1.39}
{"Gene": "COL17A1 (GeneID 1308)", "reagent no.": 1, "CDH1-null / parental viability ratio": 0.74}
{"Gene": "RP9 (GeneID 6100)", "reagent no.": 1, "CDH1-null / parental viability ratio": 0.89}
{"Gene": "COBL (GeneID 23242)", "reagent no.": 1, "CDH1-null / parental viability ratio": 1.12}
{"Gene": "LONRF3 (GeneID 79836)", "reagent no.": 1, "CDH1-null / parental viability ratio": 1.1}
{"Gene": "CHAC2 (GeneID 494143)", "reagent no.": 1, "CDH1-null / parental viability ratio": 1}
{"Gene": "CHD5 (GeneID 26038)", "reagent no.": 1, "CDH1-null / parental viability ratio": 1.04}
{"Gene": "CACNG6 (GeneID 59285)", "reagent no.": 1, "CDH1-null / parental viability ratio": 1.24}
{"Gene": "LIN7A (GeneID 8825)", "reagent no.": 1, "CDH1-null / parental viability ratio": 0.81}
{"Gene": "GNG10 (GeneID 2790)", "reagent no.": 1, "CDH1-null / parental viability ratio": 1.02}
{"Gene": "C8orf74 (GeneID 203076)", "reagent no.": 1, "CDH1-null / parental viability ratio": 1.23}
{"Gene": "H2AC13 (GeneID 8329)", "reagent no.": 1, "CDH1-null / parental viability ratio": 0.84}
{"Gene": "GADD45GIP1 (GeneID 90480)", "reagent no.": 1, "CDH1-null / parental viability ratio": 1.38}
{"Gene": "ADAM12 (GeneID 8038)", "reagent no.": 1, "CDH1-null / parental viability ratio": 1.28}
{"Gene": "ITGA6 (GeneID 3655)", "reagent no.": 1, "CDH1-null / parental viability ratio": 1.14}
{"Gene": "PPM1M (GeneID 132160)", "reagent no.": 1, "CDH1-null / parental viability ratio": 1.66}
{"Gene": "WNT10B (GeneID 7480)", "reagent no.": 1, "CDH1-null / parental viability ratio": 0.79}
{"Gene": "TACR3 (GeneID 6870)", "reagent no.": 1, "CDH1-null / parental viability ratio": 0.98}
{"Gene": "TERF1 (GeneID 7013)", "reagent no.": 1, "CDH1-null / parental viability ratio": 0.98}
{"Gene": "PIAS3 (GeneID 10401)", "reagent no.": 1, "CDH1-null / parental viability ratio": 1.02}
{"Gene": "COL4A5 (GeneID 1287)", "reagent no.": 1, "CDH1-null / parental viability ratio": 1.24}
{"Gene": "CHAC1 (GeneID 79094)", "reagent no.": 1, "CDH1-null / parental viability ratio": 0.95}
{"Gene": "SLC13A3 (GeneID 64849)", "reagent no.": 1, "CDH1-null / parental viability ratio": 0.88}
{"Gene": "RIMS4 (GeneID 140730)", "reagent no.": 1, "CDH1-null / parental viability ratio": 1.08}
{"Gene": "CASP4 (GeneID 837)", "reagent no.": 1, "CDH1-null / parental viability ratio": 0.97}
{"Gene": "IPPK (GeneID 64768)", "reagent no.": 1, "CDH1-null / parental viability ratio": 0.88}
{"Gene": "IARS1 (GeneID 3376)", "reagent no.": 1, "CDH1-null / parental viability ratio": 0.88}
{"Gene": "PITPNB (GeneID 23760)", "reagent no.": 1, "CDH1-null / parental viability ratio": 0.89}
{"Gene": "CCDC18 (GeneID 343099)", "reagent no.": 1, "CDH1-null / parental viability ratio": 0.99}
{"Gene": "QPCTL (GeneID 54814)", "reagent no.": 1, "CDH1-null / parental viability ratio": 0.84}
{"Gene": "SMN2 (GeneID 6607)", "reagent no.": 1, "CDH1-null / parental viability ratio": 1.09}
{"Gene": "DEFB110 (GeneID 245913)", "reagent no.": 1, "CDH1-null / parental viability ratio": 1.23}
{"Gene": "DEFB110 (GeneID 245913)", "reagent no.": 2, "CDH1-null / parental viability ratio": 1.06}
{"Gene": "PRCP (GeneID 5547)", "reagent no.": 1, "CDH1-null / parental viability ratio": 1.13}
{"Gene": "CEP192 (GeneID 55125)", "reagent no.": 1, "CDH1-null / parental viability ratio": 1.08}
{"Gene": "LRRC8B (GeneID 23507)", "reagent no.": 1, "CDH1-null / parental viability ratio": 0.88}
{"Gene": "PSTPIP2 (GeneID 9050)", "reagent no.": 1, "CDH1-null / parental viability ratio": 1.25}
{"Gene": "BANF1 (GeneID 8815)", "reagent no.": 1, "CDH1-null / parental viability ratio": 1.21}
{"Gene": "IL10RB (GeneID 3588)", "reagent no.": 1, "CDH1-null / parental viability ratio": 1.02}
{"Gene": "SPCS2P4 (GeneID 653566)", "reagent no.": 1, "CDH1-null / parental viability ratio": 1.13}
{"Gene": "VIPAS39 (GeneID 63894)", "reagent no.": 1, "CDH1-null / parental viability ratio": 1.19}
{"Gene": "SLC4A1 (GeneID 6521)", "reagent no.": 1, "CDH1-null / parental viability ratio": 0.95}
{"Gene": "SLC9B1 (GeneID 150159)", "reagent no.": 1, "CDH1-null / parental viability ratio": 1.16}

Targets listed so far whose target name starts with I or i (4):
{"Gene": "ITGA6 (GeneID 3655)", "reagent no.": 1, "CDH1-null / parental viability ratio": 1.14}
{"Gene": "IPPK (GeneID 64768)", "reagent no.": 1, "CDH1-null / parental viability ratio": 0.88}
{"Gene": "IARS1 (GeneID 3376)", "reagent no.": 1, "CDH1-null / parental viability ratio": 0.88}
{"Gene": "IL10RB (GeneID 3588)", "reagent no.": 1, "CDH1-null / parental viability ratio": 1.02}
